This data set in a line: general procedure: peptide synthesis; PyBOP / diisopropylethylamine; Fmoc-amino acid pentafluorophenyl ester / HOBt. The following applies: late stage modification step.

The text below walks through data of patent US8575094B2 (Novacta Biosystems Limited, priority 2007, dated 2013).

“Deoxy-Actagardine B [1-(3-dimethylaminopropyl)piperazine]monocarboxamide”: the step yield was 46%. Turning to “Deoxy-Actagardine B N-[3-dimethylaminopropyl]monocarboxamide”, the step yield is recorded as 85%.

For “Deoxy-Actagardine B [tris(hydroxymethyl)methylamine]monocarboxamide”, the step yield is given as 69%.

In the case of “Deoxy-Actagardine B N-[1-(1-methyl-4-piperidinyl)piperazine]monocarboxamide”, the step yield was 37%.
